Taken from: PubChem BioAssay AID1224830 (NIAID, 2016)
This is a random part of about 18,000 deposited reagents. Of all reagents, about 2,900 (16%) are marked active. 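Calls are made per well; low scores hint the gene aids the LPS response, high scores that it dampens it.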 Unmarked entries are inactive. Repeated entries: four replicate wells of each siRNA pool.

Purpose: 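Host factors that control LPS-induced TNF expression in human macrophages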 (primary screen)
Cell system: human THP-1 monocytic leukaemia cells, TNF dual-luciferase reporter clone, PMA-differentiated to macrophage-like cells
Reagents: siRNA pool against human genes, 50 nM
Time to read-out: LPS for 4 h, given about 3 days after siRNA transfection
Challenge: bacterial LPS (TLR4 ligand), 10 ng/ml
Measurement: 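Ratio of firefly to renilla light, scaled to the plate median and expressed as a robust z-score per replicate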
Direction: TNF reporter robust z-score: higher = stronger TNF reporter response to LPS
Hit rule: 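a well is active when its z-score exceeds 2.8 or falls below -1.5; control wells carry no call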

The opening 2 entries as a preview:
Target gene,TNF reporter robust z-score
KIF2C,-0.01
KIF2C,0.28

Results, from the start:
Target gene,TNF reporter robust z-score
KIF2C,-0.01
KIF2C,0.28
KIF2C,-0.24
KIF2C,0.2
OFD1,-1.06
OFD1,-0.04
OFD1,-0.14
OFD1,-0.2
SRSF3,-0.92
SRSF3,-1.03
SRSF3,-1.48
SRSF3,-0.98
THAP9,0.33
THAP9,0.59
THAP9,0.76
THAP9,0.45
SPACDR,0.28
SPACDR,0.62
SPACDR,1.36
SPACDR,0.12
ZNF346,-0.28
ZNF346,0.47
ZNF346,-0.56
ZNF346,-0.02
SCGB1D4,1.59
SCGB1D4,2
SCGB1D4,0.79
SCGB1D4,1.66
PGC,-0.86
PGC,-0.59
PGC,-0.87
PGC,0.52
PLAGL2,-1.23
PLAGL2,-0.95
PLAGL2,-1.04
PLAGL2,-0.82
DNAJB13,-0.29
DNAJB13,0.24
DNAJB13,0.4
DNAJB13,0.16
LRRC1,0.19
LRRC1,0.05
LRRC1,0.43
LRRC1,0.07
FAM90A1,-0.21
FAM90A1,-0.07
FAM90A1,-0.11
FAM90A1,0.42
FOXRED2,0.78
FOXRED2,-0.56
FOXRED2,0.99
FOXRED2,-0.01
H2AC7,-0.09
H2AC7,0.51
H2AC7,0.92
H2AC7,-0.06
TIPE1,-0.85
TIPE1,-0.22
TIPE1,-0.27
TIPE1,-0.49
ZSCAN18,0.36
ZSCAN18,-0.07
ZSCAN18,-0.24
ZSCAN18,-0.39
MKRN3,1.32
MKRN3,5.45 (active)
MKRN3,0.44
MKRN3,0.72
RAB7A,-0.64
RAB7A,-0.38
RAB7A,-0.45
RAB7A,-0.08
PCCA,-0.75
PCCA,-0.53
PCCA,-1.33
PCCA,-0.35
MYO18B,1.67
MYO18B,1.02
MYO18B,1.3
MYO18B,0.52
SULT1B1,0.76
SULT1B1,0.79
SULT1B1,0.17
SULT1B1,0.97
COL14A1,-1.08
COL14A1,0.63
COL14A1,-1.02
COL14A1,1.45
RYR3,0.59
RYR3,1.07
RYR3,-0.21
RYR3,1.03
GSK3B,-0.84
GSK3B,-0.23
GSK3B,-0.94
GSK3B,-0.08
PCGF2,-0.7
PCGF2,-0.91
PCGF2,-1.23
PCGF2,-0.23
CST9,1.11
CST9,0.18
CST9,1.05
CST9,0.93
HDC,-1.15
HDC,0.05
HDC,0.09
HDC,-0.18
EMC2,-0.09
EMC2,0.65
EMC2,0.24
